Percent effect of library compounds

By UniProt entry, the sequences of proteins in these tests, tags left out.
UniProt P9WPC5, whole entry: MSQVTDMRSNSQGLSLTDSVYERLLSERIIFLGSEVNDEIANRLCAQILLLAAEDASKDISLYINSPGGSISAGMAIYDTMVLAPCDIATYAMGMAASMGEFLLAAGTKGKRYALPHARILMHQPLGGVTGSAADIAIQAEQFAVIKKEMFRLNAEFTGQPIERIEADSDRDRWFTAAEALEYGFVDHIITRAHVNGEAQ
UniProt P9WPC3, whole entry partner: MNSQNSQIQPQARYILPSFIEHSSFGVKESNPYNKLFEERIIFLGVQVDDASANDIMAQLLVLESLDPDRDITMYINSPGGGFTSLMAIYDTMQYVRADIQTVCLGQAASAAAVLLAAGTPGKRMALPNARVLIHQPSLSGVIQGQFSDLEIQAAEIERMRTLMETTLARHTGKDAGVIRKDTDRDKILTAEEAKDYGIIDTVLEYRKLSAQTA
UniProt I6X8D2, whole entry: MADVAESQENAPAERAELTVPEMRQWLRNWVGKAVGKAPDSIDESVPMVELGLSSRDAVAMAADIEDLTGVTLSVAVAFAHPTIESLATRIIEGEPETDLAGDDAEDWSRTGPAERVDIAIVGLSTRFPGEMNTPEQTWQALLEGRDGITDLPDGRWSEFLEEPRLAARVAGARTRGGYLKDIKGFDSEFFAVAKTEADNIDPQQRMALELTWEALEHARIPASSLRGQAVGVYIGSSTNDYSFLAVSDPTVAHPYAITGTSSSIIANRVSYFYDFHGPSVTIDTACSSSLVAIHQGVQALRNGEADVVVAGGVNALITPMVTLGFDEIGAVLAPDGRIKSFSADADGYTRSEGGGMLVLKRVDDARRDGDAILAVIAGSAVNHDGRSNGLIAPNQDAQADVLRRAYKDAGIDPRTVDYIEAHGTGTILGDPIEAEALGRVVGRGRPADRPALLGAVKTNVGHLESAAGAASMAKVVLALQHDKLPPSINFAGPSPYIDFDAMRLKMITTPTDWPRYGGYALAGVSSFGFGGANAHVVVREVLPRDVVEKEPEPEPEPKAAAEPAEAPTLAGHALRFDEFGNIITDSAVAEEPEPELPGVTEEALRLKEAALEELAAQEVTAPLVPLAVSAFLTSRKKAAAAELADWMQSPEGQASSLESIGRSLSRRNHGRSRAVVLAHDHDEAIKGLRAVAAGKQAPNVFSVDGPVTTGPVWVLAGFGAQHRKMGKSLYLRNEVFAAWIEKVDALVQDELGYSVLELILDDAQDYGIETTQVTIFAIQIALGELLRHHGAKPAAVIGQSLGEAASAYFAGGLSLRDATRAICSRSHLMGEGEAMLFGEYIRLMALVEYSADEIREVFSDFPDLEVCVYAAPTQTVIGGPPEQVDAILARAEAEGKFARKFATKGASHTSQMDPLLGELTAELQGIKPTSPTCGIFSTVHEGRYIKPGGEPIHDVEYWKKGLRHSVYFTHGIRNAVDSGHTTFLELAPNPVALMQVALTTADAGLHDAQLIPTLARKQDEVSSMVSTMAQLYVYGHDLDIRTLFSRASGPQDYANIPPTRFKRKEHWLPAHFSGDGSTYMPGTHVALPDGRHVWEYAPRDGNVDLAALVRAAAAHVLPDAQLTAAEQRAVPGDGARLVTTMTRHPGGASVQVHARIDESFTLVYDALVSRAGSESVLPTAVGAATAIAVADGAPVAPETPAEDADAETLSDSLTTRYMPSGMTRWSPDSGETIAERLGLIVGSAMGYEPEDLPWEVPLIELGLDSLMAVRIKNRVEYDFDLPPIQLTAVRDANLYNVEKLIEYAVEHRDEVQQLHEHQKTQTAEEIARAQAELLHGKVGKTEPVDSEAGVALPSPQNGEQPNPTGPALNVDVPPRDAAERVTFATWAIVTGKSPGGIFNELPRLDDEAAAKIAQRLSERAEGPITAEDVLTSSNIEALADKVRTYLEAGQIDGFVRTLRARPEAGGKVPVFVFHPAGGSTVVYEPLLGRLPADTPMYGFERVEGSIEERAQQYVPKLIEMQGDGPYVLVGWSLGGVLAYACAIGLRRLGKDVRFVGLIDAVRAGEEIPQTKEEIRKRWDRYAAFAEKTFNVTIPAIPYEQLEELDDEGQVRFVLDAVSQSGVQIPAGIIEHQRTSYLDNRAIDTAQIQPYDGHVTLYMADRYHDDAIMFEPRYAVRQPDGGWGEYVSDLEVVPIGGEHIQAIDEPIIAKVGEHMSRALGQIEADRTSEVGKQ
UniProt P9WFT3, whole entry: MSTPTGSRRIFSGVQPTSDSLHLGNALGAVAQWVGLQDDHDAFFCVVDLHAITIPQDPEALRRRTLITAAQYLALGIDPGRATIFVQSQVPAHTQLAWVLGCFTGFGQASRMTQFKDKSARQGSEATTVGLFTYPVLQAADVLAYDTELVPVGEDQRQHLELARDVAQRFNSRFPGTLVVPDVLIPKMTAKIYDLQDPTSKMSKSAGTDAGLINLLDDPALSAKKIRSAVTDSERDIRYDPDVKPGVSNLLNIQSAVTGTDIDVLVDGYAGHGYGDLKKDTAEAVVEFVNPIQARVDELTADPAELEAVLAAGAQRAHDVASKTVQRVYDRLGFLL

From ChEMBL document CHEMBL3988442, “University of Dundee, Small-Polar-MMV Screening Library” (2021).

ClpP1P2: 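Protease assay of ClpP1P2, read by the AMC dye that it sets free. Target: ClpP1P2, Mycobacterium tuberculosis (UniProt P9WPC5 and UniProt P9WPC3). Concentration: 50 µM. Direction is inferred from only a few compounds that gave an IC50; most scored high, so higher reads as stronger inhibition. Most other retested compounds had strongly negative values. Size under these conditions: about 69,000 compounds, about 10 of them at 50% or above in at least one test.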
Pks13 thioesterase: 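Polyketide synthase Pks13, Mycobacterium tuberculosis (UniProt I6X8D2). Enzyme assay of the thioesterase domain of polyketide synthase 13; the read-out is not stated. Tested at 30 µM. Higher reads as stronger inhibition (inferred from which compounds were picked for retests). Of about 67,000 compounds tested this way, about 300 (0.46%) reached 50% or more in at least one test.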
MtTrpRS: 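Tryptophan-tRNA ligase, Mycobacterium tuberculosis (UniProt P9WFT3). Enzyme assay of tryptophanyl-tRNA synthetase; the read-out is not stated. Compounds at 10 µM. Higher most likely means stronger inhibition; the record gives no direction and few retests gave an IC50. Size under these conditions: about 65,000 compounds, about 64 of them at 50% or above in at least one test.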

Values are the deposited “Percent Effect”, in %.
The controls that fix the scale are not given in the record; negative values are as filed.
Compounds were drawn at random from those tested, without regard to their results.
A dash means the value is not listed here; it may have been measured.

| structure | ClpP1P2 | Pks13 thioesterase | MtTrpRS |
|---|---|---|---|
| `Cn1cnnc1CN1CCC2(CCC(=O)N(Cc3ccccc3)C2)CC1` | 1.064 | -39.88 | -1.032 |
| `COc1ccc(S(=O)(=O)NCCC(O)c2cccs2)c(C)c1` (stereo unspecified) | -6.659 | -26.38 | 3.723 |
| `CCCc1n[nH]c(C2CN(C(=O)c3cccc4[nH]ncc34)CCO2)n1` (stereo unspecified) | -29.56 | -9.939 | -13.13 |
| `Cc1cc(=O)n2nc(-c3cccs3)nc2n1CC(=O)NC(C)C` | 9.496 | -1.361 | 2.386 |
| `CNC(=O)[C@@]12CCCN(c3ncccn3)[C@@H]1CN(C)C2` | -5.195 | -13.3 | 5.623 |
| `c1cnc(OCc2nnc3n2CCN(CC2CC2)C3)nc1` | 3.53 | -11.53 | -3.356 |
| `CC(NC(=O)CCC(C)(C)C)C(=O)Nc1ccc(-n2cncn2)cc1` (stereo unspecified) | -12.33 | 2.627 | 4.242 |
| `CC(C)CN(c1cn[nH]c1)S(=O)(=O)c1cccc(C#N)c1` | -9.854 | -9.458 | -2.414 |
| `COc1ccc(CN2C[C@H](O)C[C@H]2c2nc(-c3ccccc3)no2)cc1` | -7.238 | 16.93 | 3.81 |
| `CN(CCOCC1CC1)C(=O)Nc1ccc([S+](C)[O-])cc1` (stereo unspecified) | -10.39 | 3.473 | 0 |
| `CS(=O)(=O)N[C@@H]1CN(C(=O)c2cccnc2)[C@@H]2CCCO[C@@H]21` | 6.207 | -16.33 | -0.6875 |
| `Cc1ccccc1NS(=O)(=O)c1cc2c(c(C(=O)O)c1)OCCO2` | -5.071 | -10.55 | -0.2924 |
| `COC(=O)c1ccc(C(=O)NS(=O)(=O)c2cncc(Br)c2)cc1` | -8.147 | -17.45 | -3.638 |
| `N#Cc1ccc(OCCCN2CCc3cncnc3C2)cc1` | -3.134 | -14.57 | 0.8655 |
| `O=c1c2cc3c(cc2nnn1Cc1cccc(F)c1)OCCO3` | -25.05 | 6.344 | 3.692 |
| `CN1CCCN(C(=O)NCc2cccnc2-n2cccn2)CC1` | -20.55 | -26.34 | -1.728 |
| `CCS(=O)(=O)N1CCc2ccc(=O)n(CC3CC3)c2CC1` | 6.114 | -27.57 | -0.8765 |
| `Cc1ccc(CCN[C@@H]2c3ccccc3C3(CCNCC3)[C@H]2O)s1` | -9.871 | -27.85 | 2.469 |
| `CC(=O)N(Cc1ncc(C(C)C)o1)C1CCN(Cc2nccn2C)C1` (stereo unspecified) | 14.85 | - | 1.652 |
| `CN(C)c1cncc(C2CCN(CC(N)=O)CC2)n1` | -3.245 | 14.84 | - |
| `COC(=O)C1CCCCN1C(=O)c1cn(C/C=C/c2ccccc2)nn1` (stereo unspecified) | -15.77 | -10.98 | -0.7189 |
| `CN(CCCSc1ccccc1)C(=O)Cn1ncc(N(C)C)cc1=O` | -19.37 | 3.519 | -2.576 |
| `Cc1ccc(N2CCO[C@H]3CN(C(=O)c4cccc(C)n4)C[C@H]32)nn1` | -18.98 | -17.57 | 2.039 |
| `c1ccc(Cc2noc(CN3CCOC(Cn4cncn4)C3)n2)cc1` (stereo unspecified) | -4.968 | -19.23 | 13.52 |
| `Cc1nc(CN2CCC(c3ccnn3CCO)CC2)oc1C` | -27.23 | -2.178 | -1.557 |
| `CC(C)(C)n1ncc2c(=O)n(CC(=O)NCc3ccccc3Cl)cnc21` | 4.153 | -10.62 | -6.763 |
| `COc1ccc(-n2cccn2)c(CN2CCC3(CCNCC3)C2)c1` | 12.82 | -5.939 | 2.414 |
| `CC(C)n1nc(O)c2c1NC(=O)CSC2c1cnn(C)c1` (stereo unspecified) | -6.347 | -2.417 | 1.568 |
| `COCCc1noc(CN2CCCC2c2c(C)nn(C)c2Cl)n1` (stereo unspecified) | 6.078 | -9.39 | 4.066 |
| `CC(C)c1noc(CCNC(=O)NCC2COc3ccccc3O2)n1` (stereo unspecified) | 2.266 | -17.18 | 2.839 |
| `Cc1ccc(C(=O)NS(=O)(=O)Cc2ccccc2)cc1S(C)(=O)=O` | -12.98 | -11.3 | -2.98 |
| `Cc1cc(CNCc2c(C(C)C)nn(C)c2N2CCOCC2)no1` | -6.332 | -15.12 | -3.263 |
| `CC(c1ccco1)N(C(=O)COc1ccc(C#N)cc1)C1CC1` (stereo unspecified) | -13.87 | -1.419 | 0.8227 |
| `CC(C)N(C)C(=O)c1ccc(CNc2cncc(Cl)n2)cc1` | -14.71 | 18.04 | -11.95 |
| `CNc1cncc(C2CCCN2C(=O)c2ccc3oc(C)cc3c2)n1` (stereo unspecified) | -7.552 | 38.32 | -0.9167 |
| `CCO[C@H]1CC[C@H]2[C@H]1OCCN2C(=O)c1nn(C)c2ccccc12` | -15.25 | -2.756 | - |
| `O=C(c1ccncc1)N1CCc2c(COCC3CC3)cncc2C1` | 0.443 | -21.1 | -4.198 |
| `O=C(CN1CCC2(CC1)NC(=O)c1cc(Br)ccc1N2)NC1CC1` | -132.6 | 6.817 | -7.74 |
| `NCc1cnn(-c2ccccc2C(=O)NCCc2ccccn2)c1` | -8.369 | 2.35 | - |
| `CC(C)(O)CN1CCN(C(=O)c2ccc(Cl)c3cccnc23)CC1` | 6.137 | -26.68 | 4.679 |

For reference, 3 entries once more:

structure,ClpP1P2,Pks13 thioesterase,MtTrpRS
Cc1nc(CN2CCC(c3ccnn3CCO)CC2)oc1C,-27.23,-2.178,-1.557
CC(c1ccco1)N(C(=O)COc1ccc(C#N)cc1)C1CC1 (stereo unspecified),-13.87,-1.419,0.8227
CS(=O)(=O)N[C@@H]1CN(C(=O)c2cccnc2)[C@@H]2CCCO[C@@H]21,6.207,-16.33,-0.6875